Changes are numbered by the printed parent chain. These are yes or no findings as the source states them, for the method shown. Binding can be weak; no strength is given.
B1: v28704 (antibody, human IgG1, kappa, L234A L235A, V domains shown)
VH: QVQLQESGPGLVKPSETLSITCTVSGFSLISYGVHWVRQPPGKGLEWLGVIWSGGSTDYNPSLKSRVTISKDTSKNQVSFKLSSLTAADTAIYYCARNPLTATVMDYWGQGTLVTVSS
VL: DIQMTQSPSSLSASVGDRVTITCRASQNVGTNVAWYQQKPGKAPKALIYSASYRDSGVPSRFSGSGSGTDFTLTISSLQPEDFATYYCQQYNSYPLTFGGGTKVEIKR
B2: v28705 (antibody, human IgG1, kappa, L234A L235A, V domains shown)
VH: B1 VH
VL: B1 VL with I21V, L78V, V104L
B3: v28706 (antibody, human IgG1, kappa, L234A L235A, V domains shown)
VH: B1 VH
VL: B1 VL with I21V, L78V, F83L, V104L
B4: v28711 (antibody, human IgG1, kappa, L234A L235A, V domains shown)
VH: B1 VH with T73N
VL: B1 VL
B5: v28712 (antibody, human IgG1, kappa, L234A L235A, V domains shown)
VH: B1 VH with T73N
VL: B1 VL with I21V, L78V, V104L
B6: v28713 (antibody, human IgG1, kappa, L234A L235A, V domains shown)
VH: B1 VH with T73N
VL: B1 VL with I21V, L78V, F83L, V104L
B7: v28696 (antibody, human IgG1, kappa, L234A L235A, V domains shown)
VH: B1 VH with I20L, V37I, L48I, K71V, V78F, F80L, L85V, I92V
VL: B1 VL
B8: v28697 (antibody, human IgG1, kappa, L234A L235A, V domains shown)
VH: B1 VH with I20L, V37I, L48I, K71V, V78F, F80L, L85V, I92V
VL: B1 VL with I21V, L78V, V104L
B9: v28698 (antibody, human IgG1, kappa, L234A L235A, V domains shown)
VH: B1 VH with I20L, V37I, L48I, K71V, V78F, F80L, L85V, I92V
VL: B1 VL with I21V, L78V, F83L, V104L
B10: v28701 (antibody, human IgG1, kappa, L234A L235A, V domains shown)
VH: B1 VH with I20L, V78F, F80L, L85V, I92V
VL: B1 VL with I21V, L78V, V104L
B11: v28702 (antibody, human IgG1, kappa, L234A L235A, V domains shown)
VH: B1 VH with I20L, V78F, F80L, L85V, I92V
VL: B1 VL with I21V, L78V, F83L, V104L
B12: v28703 (antibody, human IgG1, kappa, L234A L235A, V domains shown)
VH: B1 VH
VL: B1 VL with Y36F, A46S
B13: v28707 (antibody, human IgG1, kappa, L234A L235A, V domains shown)
VH: B1 VH with T73N
VL: B1 VL with Y36F, A46S
B14: v20023 (antibody, human IgG1, kappa, L234A L235A, V domains shown)
VH: EVQLVESGGGLVKPGGSRKLSCAASGFTFSEFGMHWVRQAPDKGLKWVAYISSGGSTIYYADTVKGRFTISRDNAKNTLFLQMTSLRSEDTAMYYCARDWVDYWGQGTTLTVSS
VL: NIVMTQSPKSMSMSVGERVTLSCKASENVGSYVSWYQQKPEKSPKLLIYGASNRYTGVPDRFTGSGSATDFTLTISSVQAEDLADYHCGQSYSYPLTFGAGTKLELKR
B15: v28684 (antibody, human IgG1, kappa, L234A L235A, V domains shown)
VH: EVQLVESGGGLVQPGGSLRLSCAASGFTFSEFGMHWVRQAPGKGLEWVSYISSGGSTIYYADSVKGRFTISRDNAKNSLYLQMNSLRAEDTAVYYCARDWVDYWGQGTLVTVSS
VL: EIVLTQSPATLSLSPGERATLSCKASENVGSYVSWYQQKPGQAPRLLIYGASNRYTGVPARFSGSGSGTDFTLTISSLEPEDFAVYYCGQSYSYPLTFGGGTKVEIKR
B16: v20022 (antibody, human IgG1, kappa, L234A L235A, V domains shown)
VH: QVQLKESGPGLVAPSQSLSITCTVSGFSLTTYAISWVRQPPGKGLEWLGIIWPGGGTNYNSALKSRLSISKDNSRSQVFLKMNSLQTDDTARYYCARGAGTWYFDVWGAGTTVTVSS
VL: DIQMTQSTSSLSASVGDRVTISCSASQGISNYLNWYQQKPDGTVKLLIYYTSSLHSGVPSRFSGSGSGTDYSLTISNLEPEDIATYYCQQYSKFPWTFGGGTKLEIKR
B17: v28726 (antibody, human IgG1, kappa, L234A L235A, V domains shown)
VH: EVQLVESGGGLIQPGGSLRLSCAVSGFSLTTYAISWVRQAPGKGLEWLGIIWPGGGTNYADSVKGRFTISKDNSKNTLYLQMNSLRAEDTAVYYCARGAGTWYFDVWGQGTLVTVSS
VL: B16 VL with T8P, S22T, D41G, G42K, S72T, N77S, E79Q, G100Q
B18: v28727 (antibody, human IgG1, kappa, L234A L235A, V domains shown)
VH: B17 VH with L20I, V63L, F67L, L78V, A87T
VL: DIQMTQSPSSLSASVGDRVTITCSASQGISNYLNWYQQKPGKAPKLLIYYTSSLHSGVPSRFSGSGSGTDFTFTISSLQPEDIATYYCQQYSKFPWTFGQGTKVEIKR
B19: v28728 (antibody, human IgG1, kappa, L234A L235A, V domains shown)
VH: B17 VH with L20I, V63L, F67L, L78V, A87T
VL: B18 VL with F71Y, F73L, V104L
B20: v28730 (antibody, human IgG1, kappa, L234A L235A, V domains shown)
VH: B17 VH with L20I, V63L, F67L, L78V, A87T
VL: B18 VL with A43T, P44V, F71Y, F73L, V104L
B21: v28683 (antibody, human IgG1, kappa, L234A L235A, V domains shown)
VH: B15 VH
VL: B15 VL with V58I
B22: v28685 (antibody, human IgG1, kappa, L234A L235A, V domains shown)
VH: B15 VH
VL: B15 VL with L4M, A19V, L78V, V104L, I106L
B23: v28686 (antibody, human IgG1, kappa, L234A L235A, V domains shown)
VH: B15 VH
VL: B15 VL with L4M, A19V, L78V, F83L, V104L, I106L
B24: v28687 (antibody, human IgG1, kappa, L234A L235A, V domains shown)
VH: B15 VH with S49A, V110L
VL: B15 VL with V58I
B25: v28688 (antibody, human IgG1, kappa, L234A L235A, V domains shown)
VH: B15 VH with S49A, V110L
VL: B15 VL
B26: v28689 (antibody, human IgG1, kappa, L234A L235A, V domains shown)
VH: B15 VH with S49A, V110L
VL: B15 VL with L4M, A19V, L78V, V104L, I106L
B27: v28690 (antibody, human IgG1, kappa, L234A L235A, V domains shown)
VH: B15 VH with S49A, V110L
VL: B15 VL with L4M, A19V, L78V, F83L, V104L, I106L
B28: v28691 (antibody, human IgG1, kappa, L234A L235A, V domains shown)
VH: B15 VH with S49A, V93M, V110L
VL: B15 VL with V58I
B29: v28692 (antibody, human IgG1, kappa, L234A L235A, V domains shown)
VH: B15 VH with S49A, V93M, V110L
VL: B15 VL
B30: v28693 (antibody, human IgG1, kappa, L234A L235A, V domains shown)
VH: B15 VH with S49A, V93M, V110L
VL: B15 VL with L4M, A19V, L78V, V104L, I106L
B31: v28694 (antibody, human IgG1, kappa, L234A L235A, V domains shown)
VH: B15 VH with S49A, V93M, V110L
VL: B15 VL with L4M, A19V, L78V, F83L, V104L, I106L
B32: v28700 (antibody, human IgG1, kappa, L234A L235A, V domains shown)
VH: B1 VH with I20L, V78F, F80L, L85V, I92V
VL: B1 VL

Experiments:
[1] = biological target: purified human monomeric 4-1BB (human); assay: SPR
[2] = biological target: SEC-purified Cyno 4-1BB-His (cynomolgus); assay: SPR, Ab captured, cyno 4-1BB-His injected

Binder	binding [1]	binding [2]
B1	binds	–
B2	binds	–
B3	binds	–
B4	binds	–
B5	binds	–
B6	binds	–
B7	binds	–
B8	binds	–
B9	binds	–
B10	binds	–
B11	binds	–
B12	binds	–
B13	binds	–
B14	–	binds
B15	binds	binds
B16	–	binds

Binder	binding [1]	binding [2]
B17	binds	–
B18	binds	–
B19	binds	–
B20	binds	–
B21	binds	–
B22	binds	–
B23	binds	–
B24	binds	–
B25	binds	–
B26	binds	–
B27	binds	–
B28	binds	–
B29	binds	–
B30	binds	–
B31	binds	–
B32	binds	–

— patent publication US20230052369A1
